# From the supplement of paper PMC8728848
# This is one part of the list.
# B1: pilr alpha (protein)
# chain: MLYGVTQPKHLSASMGGSVEIPFSFYYPWELATAPDVRISWRRGHFHRQSFYSTRPPSIHKDYVNRLFLNWTEGQKSGFLRISNLQKQDQSVYFCRVELDTRSSGRQQWQSIEGTKLSIT
# Columns and labels:
# Assay in all cases: glycan array binding signal (z-score within array); higher = stronger binding
# Conditions in all cases: glycan notation: IUPAC condensed, linker removed
# [1] = molecular target: Neu5Ac(a2-3)Gal(b1-4)GlcNAc(b1-2)[Neu5Ac(a2-3)Gal(b1-4)GlcNAc(b1-4)]Man(a1-3)[GlcNAc(b1-4)][Neu5Ac(a2-3)Gal(b1-4)GlcNAc(b1-4)Man(a1-6)]Man(b1-4)GlcNAc(b1-4)GlcNAc
# In short: (§1)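 Negative Z-scores can be read as non-binding. The Z-score is calculated within each array and then averaged across arrays of one protein sequence at different concentrations or buffers and across linkers. Arrays, 3228 in all, were curated from the Consortium for Functional Glycomics database and kept only where the protein sequence was available.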
# [2] = molecular target: Neu5Ac(a2-3)Gal(b1-4)GlcNAc(b1-2)[Neu5Ac(a2-3)Gal(b1-4)GlcNAc(b1-6)]Man(a1-6)[Neu5Ac(a2-3)Gal(b1-4)GlcNAc(b1-2)Man(a1-3)]Man(b1-4)GlcNAc(b1-4)GlcNAc
# In short: as §1
# [3] = molecular target: Neu5Ac(a2-3)Gal(b1-4)GlcNAc(b1-2)[Neu5Ac(a2-3)Gal(b1-4)GlcNAc(b1-6)]Man(a1-6)[Neu5Ac(a2-3)Gal(b1-4)GlcNAc(b1-2)Man(a1-3)][GlcNAc(b1-4)]Man(b1-4)GlcNAc(b1-4)GlcNAc
# In short: as §1
# [4] = molecular target: Neu5Ac(a2-3)Gal(b1-4)GlcNAc(b1-3)Gal
# In short: as §1
# [5] = molecular target: Neu5Ac(a2-3)Gal(b1-4)GlcNAc(b1-3)Gal(b1-3)GlcNAc
# In short: as §1
# [6] = molecular target: Neu5Ac(a2-3)Gal(b1-4)GlcNAc(b1-3)Gal(b1-4)GlcNAc
# In short: as §1
# [7] = molecular target: Neu5Ac(a2-3)Gal(b1-4)GlcNAc(b1-3)Gal(b1-4)GlcNAc(b1-2)Man(a1-3)[Neu5Ac(a2-3)Gal(b1-4)GlcNAc(b1-3)Gal(b1-4)GlcNAc(b1-2)Man(a1-6)]Man(b1-4)GlcNAc(b1-4)GlcNAc
# In short: as §1
# [8] = molecular target: Neu5Ac(a2-3)Gal(b1-4)GlcNAc(b1-3)Gal(b1-4)GlcNAc(b1-3)Gal(b1-4)GlcNAc
# In short: as §1
# [9] = molecular target: Neu5Ac(a2-3)Gal(b1-4)GlcNAc(b1-3)Gal(b1-4)GlcNAc(b1-3)Gal(b1-4)GlcNAc(b1-2)Man(a1-3)[Neu5Ac(a2-3)Gal(b1-4)GlcNAc(b1-3)Gal(b1-4)GlcNAc(b1-3)Gal(b1-4)GlcNAc(b1-2)Man(a1-6)]GalNAc
# In short: as §1
# [10] = molecular target: Neu5Ac(a2-3)Gal(b1-4)GlcNAc(b1-3)Gal(b1-4)GlcNAc(b1-3)GalNAc
# In short: as §1
# [11] = molecular target: Neu5Ac(a2-3)Gal(b1-4)GlcNAc(b1-3)Gal(b1-4)GlcNAc(b1-3)[Neu5Ac(a2-3)Gal(b1-4)GlcNAc(b1-3)Gal(b1-4)GlcNAc(b1-6)]GalNAc
# In short: as §1
# [12] = molecular target: Neu5Ac(a2-3)Gal(b1-4)GlcNAc(b1-3)Gal(b1-4)GlcNAc(b1-6)[Gal(b1-3)]GalNAc
# In short: as §1
# [13] = molecular target: Neu5Ac(a2-3)Gal(b1-4)GlcNAc(b1-3)Gal(b1-4)[Fuc(a1-3)]GlcNAc
# In short: as §1
# [14] = molecular target: Neu5Ac(a2-3)Gal(b1-4)GlcNAc(b1-3)GalNAc
# In short: as §1
# [15] = molecular target: Neu5Ac(a2-3)Gal(b1-4)GlcNAc(b1-3)[Neu5Ac(a2-3)Gal(b1-4)GlcNAc(b1-6)]GalNAc
# In short: as §1
# [16] = molecular target: Neu5Ac(a2-3)Gal(b1-4)GlcNAc(b1-6)GalNAc
# In short: as §1
# [17] = molecular target: Neu5Ac(a2-3)Gal(b1-4)GlcNAc(b1-6)[Gal(b1-3)]GalNAc
# In short: as §1
# [18] = molecular target: Neu5Ac(a2-3)Gal(b1-4)GlcNAc(b1-6)[Neu5Ac(a2-3)Gal(b1-3)]GalNAc
# In short: as §1
# [19] = molecular target: Neu5Ac(a2-3)Gal(b1-4)GlcNAc6S
# In short: as §1
# [20] = molecular target: Neu5Ac(a2-3)Gal(b1-4)[Fuc(a1-3)]GlcNAc
# In short: as §1
# [21] = molecular target: Neu5Ac(a2-3)Gal(b1-4)[Fuc(a1-3)]GlcNAc(b1-2)Man
# In short: as §1
# [22] = molecular target: Neu5Ac(a2-3)Gal(b1-4)[Fuc(a1-3)]GlcNAc(b1-3)Gal
# In short: as §1
# [23] = molecular target: Neu5Ac(a2-3)Gal(b1-4)[Fuc(a1-3)]GlcNAc(b1-3)Gal(b1-4)GlcNAc
# In short: as §1
# [24] = molecular target: Neu5Ac(a2-3)Gal(b1-4)[Fuc(a1-3)]GlcNAc(b1-3)Gal(b1-4)[Fuc(a1-3)]GlcNAc(b1-3)Gal(b1-4)[Fuc(a1-3)]GlcNAc
# In short: as §1
# [25] = molecular target: Neu5Ac(a2-3)Gal(b1-4)[Fuc(a1-3)]GlcNAc(b1-3)GalNAc
# In short: as §1
# [26] = molecular target: Neu5Ac(a2-3)Gal(b1-4)[Fuc(a1-3)]GlcNAc(b1-6)[Gal(b1-3)]GalNAc
# In short: as §1
# [27] = molecular target: Neu5Ac(a2-3)Gal(b1-4)[Fuc(a1-3)]GlcNAc(b1-6)[Neu5Ac(a2-3)Gal(b1-3)]GalNAc
# In short: as §1
# [28] = molecular target: Neu5Ac(a2-3)Gal(b1-4)[Fuc(a1-3)]GlcNAc6S
# In short: as §1
# [29] = molecular target: Neu5Ac(a2-3)Gal6S(b1-4)GlcNAc
# In short: as §1
# [30] = molecular target: Neu5Ac(a2-3)Gal6S(b1-4)[Fuc(a1-3)]GlcNAc
# In short: as §1
# Neu5Ac(a2-3)GalNAc = molecular target: Neu5Ac(a2-3)GalNAc
# In short: as §1
# [31] = molecular target: Neu5Ac(a2-3)GalNAc(b1-4)GlcNAc
# In short: as §1
# [32] = molecular target: Neu5Ac(a2-3)[GalNAc(b1-4)]Gal(b1-4)Glc
# In short: as §1
# [33] = molecular target: Neu5Ac(a2-3)[GalNAc(b1-4)]Gal(b1-4)GlcNAc
# In short: as §1
# [34] = molecular target: Neu5Ac(a2-3)[GalNAc(b1-4)]Gal(b1-4)GlcNAc(b1-3)GalNAc
# In short: as §1
# [35] = molecular target: Neu5Ac(a2-3)[Neu5Ac(a2-6)]GalNAc
# In short: as §1
# Neu5Ac(a2-6)Gal = molecular target: Neu5Ac(a2-6)Gal
# In short: as §1
# [36] = molecular target: Neu5Ac(a2-6)Gal(b1-3)GlcNAc(b1-3)[Gal(b1-4)GlcNAc(b1-6)]Gal(b1-4)Glc
# In short: as §1
# Neu5Ac(a2-6)Gal(b1-4)Glc = molecular target: Neu5Ac(a2-6)Gal(b1-4)Glc
# In short: as §1
# [37] = molecular target: Neu5Ac(a2-6)Gal(b1-4)GlcNAc
# In short: as §1
# [38] = molecular target: Neu5Ac(a2-6)Gal(b1-4)GlcNAc(b1-2)Man
# In short: as §1
# [39] = molecular target: Neu5Ac(a2-6)Gal(b1-4)GlcNAc(b1-2)Man(a1-3)Man(b1-4)GlcNAc(b1-4)GlcNAc
# In short: as §1
# [40] = molecular target: Neu5Ac(a2-6)Gal(b1-4)GlcNAc(b1-2)Man(a1-3)[Gal(b1-4)GlcNAc(b1-2)Man(a1-6)]Man(b1-4)GlcNAc(b1-4)GlcNAc
# In short: as §1
# [41] = molecular target: Neu5Ac(a2-6)Gal(b1-4)GlcNAc(b1-2)Man(a1-3)[GlcNAc(b1-2)Man(a1-6)]Man(b1-4)GlcNAc(b1-4)GlcNAc
# In short: as §1
# [42] = molecular target: Neu5Ac(a2-6)Gal(b1-4)GlcNAc(b1-2)Man(a1-3)[GlcNAc(b1-4)][Neu5Ac(a2-6)Gal(b1-4)GlcNAc(b1-2)Man(a1-6)]Man(b1-4)GlcNAc(b1-4)GlcNAc
# In short: as §1
binder,measurement,setting,value
B1,glycan array binding signal (z-score),[1],-0.4
same,glycan array binding signal (z-score),[2],-0.299
same,glycan array binding signal (z-score),[3],-0.41
same,glycan array binding signal (z-score),[4],-0.61
same,glycan array binding signal (z-score),[5],-0.35
same,glycan array binding signal (z-score),[6],-0.155
same,glycan array binding signal (z-score),[7],0.102
same,glycan array binding signal (z-score),[8],-0.173
same,glycan array binding signal (z-score),[9],0.331
same,glycan array binding signal (z-score),[10],-0.77
same,glycan array binding signal (z-score),[11],-0.575
same,glycan array binding signal (z-score),[12],0.592
same,glycan array binding signal (z-score),[13],-0.384
same,glycan array binding signal (z-score),[14],-0.111
same,glycan array binding signal (z-score),[15],-0.347
same,glycan array binding signal (z-score),[16],-0.452
same,glycan array binding signal (z-score),[17],-0.533
same,glycan array binding signal (z-score),[18],-0.642
same,glycan array binding signal (z-score),[19],-0.654
same,glycan array binding signal (z-score),[20],-0.287
same,glycan array binding signal (z-score),[21],-0.097
same,glycan array binding signal (z-score),[22],-0.142
same,glycan array binding signal (z-score),[23],0.457
same,glycan array binding signal (z-score),[24],1.01
same,glycan array binding signal (z-score),[25],1.59
same,glycan array binding signal (z-score),[26],0.534
same,glycan array binding signal (z-score),[27],-0.1
same,glycan array binding signal (z-score),[28],0.643
same,glycan array binding signal (z-score),[29],-0.007
same,glycan array binding signal (z-score),[30],-0.395
same,glycan array binding signal (z-score),Neu5Ac(a2-3)GalNAc,-0.569
same,glycan array binding signal (z-score),[31],0.102
same,glycan array binding signal (z-score),[32],0.89
same,glycan array binding signal (z-score),[33],-0.65
same,glycan array binding signal (z-score),[34],0.118
same,glycan array binding signal (z-score),[35],-0.023
same,glycan array binding signal (z-score),Neu5Ac(a2-6)Gal,-0.339
same,glycan array binding signal (z-score),[36],-0.49
same,glycan array binding signal (z-score),Neu5Ac(a2-6)Gal(b1-4)Glc,0.137
same,glycan array binding signal (z-score),[37],-0.299
same,glycan array binding signal (z-score),[38],-0.586
same,glycan array binding signal (z-score),[39],-0.545
same,glycan array binding signal (z-score),[40],-0.165
same,glycan array binding signal (z-score),[41],-0.363
same,glycan array binding signal (z-score),[42],-0.429
